In PubChem BioAssay AID2315 (National Center for Advancing Translational Sciences (NCATS), 2010):
Only a part is listed here, and it is no random draw. Calls of active or inactive are those of the source. No stated cut-off is given here; in the data, active means inhibition mostly above about 28% (no sharp cut-off); inactive means mostly below about 43%.

Test: A qHTS for Small Molecule Inhibitors of Shiga Toxin; further: 0% is about no effect
Conditions: Vero cells, Shiga toxin protein synthesis inhibition reporter; at 38.7 µM; active compounds read high
In the case of `COc1ccc(/C(N)=N/OC(=O)CSc2ccccc2)cc1`, the inhibition is reported as active: 70.9%.
